Data on 2 molecules can be found in PMC4314728.

Chains of the proteins cited; added tags and fusions are not shown. Residues count along the entry.
UniProt P41231: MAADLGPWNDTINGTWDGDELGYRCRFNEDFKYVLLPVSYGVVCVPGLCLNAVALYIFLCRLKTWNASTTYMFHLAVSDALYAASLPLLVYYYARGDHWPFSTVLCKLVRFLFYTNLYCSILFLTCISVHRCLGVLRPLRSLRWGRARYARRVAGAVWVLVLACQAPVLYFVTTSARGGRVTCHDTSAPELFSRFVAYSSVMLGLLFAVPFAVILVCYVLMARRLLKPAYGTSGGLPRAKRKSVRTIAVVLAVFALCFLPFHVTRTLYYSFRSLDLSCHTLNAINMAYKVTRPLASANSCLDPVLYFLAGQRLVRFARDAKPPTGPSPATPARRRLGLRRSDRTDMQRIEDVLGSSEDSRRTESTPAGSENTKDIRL
UniProt P35968, residues 20-1356: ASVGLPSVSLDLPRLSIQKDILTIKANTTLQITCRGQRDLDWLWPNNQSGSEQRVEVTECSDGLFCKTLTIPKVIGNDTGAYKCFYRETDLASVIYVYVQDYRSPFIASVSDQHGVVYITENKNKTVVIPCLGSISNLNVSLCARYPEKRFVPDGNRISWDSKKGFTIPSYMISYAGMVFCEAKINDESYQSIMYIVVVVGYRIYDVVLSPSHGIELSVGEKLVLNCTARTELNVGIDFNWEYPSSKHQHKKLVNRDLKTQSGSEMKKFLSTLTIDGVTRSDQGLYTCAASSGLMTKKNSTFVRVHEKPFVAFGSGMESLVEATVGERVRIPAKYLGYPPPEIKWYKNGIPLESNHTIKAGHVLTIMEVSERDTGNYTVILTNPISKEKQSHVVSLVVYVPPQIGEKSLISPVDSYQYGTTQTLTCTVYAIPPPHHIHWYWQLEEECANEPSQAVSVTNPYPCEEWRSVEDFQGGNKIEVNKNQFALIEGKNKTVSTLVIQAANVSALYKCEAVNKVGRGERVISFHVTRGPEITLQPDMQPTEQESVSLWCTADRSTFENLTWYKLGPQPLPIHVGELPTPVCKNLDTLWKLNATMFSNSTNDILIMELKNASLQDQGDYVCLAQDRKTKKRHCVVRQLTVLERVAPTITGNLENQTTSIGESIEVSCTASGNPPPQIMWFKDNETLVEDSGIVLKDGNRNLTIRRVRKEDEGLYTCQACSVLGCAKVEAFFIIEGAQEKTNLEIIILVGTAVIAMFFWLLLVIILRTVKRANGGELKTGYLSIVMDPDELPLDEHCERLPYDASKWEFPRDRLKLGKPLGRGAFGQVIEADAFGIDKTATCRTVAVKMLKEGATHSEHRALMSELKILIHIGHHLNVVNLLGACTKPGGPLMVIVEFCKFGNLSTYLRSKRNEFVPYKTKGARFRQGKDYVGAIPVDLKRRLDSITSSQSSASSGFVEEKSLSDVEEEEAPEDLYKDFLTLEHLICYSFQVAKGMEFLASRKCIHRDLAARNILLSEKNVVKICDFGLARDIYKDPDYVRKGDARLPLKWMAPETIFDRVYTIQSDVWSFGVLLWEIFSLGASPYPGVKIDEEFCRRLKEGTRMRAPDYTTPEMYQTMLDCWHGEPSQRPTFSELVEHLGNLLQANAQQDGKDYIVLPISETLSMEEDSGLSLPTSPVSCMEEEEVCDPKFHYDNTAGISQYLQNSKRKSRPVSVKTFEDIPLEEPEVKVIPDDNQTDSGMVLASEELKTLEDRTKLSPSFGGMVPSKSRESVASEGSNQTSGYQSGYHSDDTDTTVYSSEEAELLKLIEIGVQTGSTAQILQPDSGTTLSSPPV

Results are given in words; binding and its absence hold for the method and conditions named. In cells and extracts the contact can be indirect. Some entries that bind do so weakly or less than the wild type.

Assay [1] concerns the target HA-tagged human P2Y2 nucleotide receptor, transiently expressed in HCAECs (human) (UniProt P41231). Nature of the assay: condition: only pretreatment with 1 µM PP2 or 10 µM SU1498 for 30 min; co-IP; HCAECs expressing HA-hP2Y2R, pretreated with 1 µM PP2 (Src inhibitor) or 10 µM SU1498 (VEGFR-2 inhibitor) for 30 min, then 100 µM UTP for 5 min; IP anti-HA matrix beads, IB anti-VE-cadherin.

The target is the same in assay [2]. Nature of the assay: co-IP; HCAECs expressing HA-hP2Y2R, 100 µM UTP for 5 min; lysate IP with mouse anti-HA agarose beads, IB with anti-VE-cadherin.
The target is the same in assay [3]. Nature of the assay: condition: only 10 min after the 5 min of exposure to 100 µM UTP; co-IP; as a1, but later time point of the UTP time course (10 min after the 5 min point); IP anti-HA agarose, IB anti-VE-cadherin.
Assay [4] addresses VEGF receptor-2 (VEGFR-2), endogenous in HCAECs (human (endogenous in HCAECs)) (UniProt P35968). Nature of the assay: co-IP; HCAECs, 100 µM UTP for the indicated time; lysate IP with anti-VEGFR-2 antibody, IB with anti-VE-cadherin; endogenous proteins.
In assay [5] the target is T1, vav2 (guanine nucleotide exchange factor for Rac), endogenous in HCAECs (human (endogenous in HCAECs)) (UniProt P52735).
T1 sequence: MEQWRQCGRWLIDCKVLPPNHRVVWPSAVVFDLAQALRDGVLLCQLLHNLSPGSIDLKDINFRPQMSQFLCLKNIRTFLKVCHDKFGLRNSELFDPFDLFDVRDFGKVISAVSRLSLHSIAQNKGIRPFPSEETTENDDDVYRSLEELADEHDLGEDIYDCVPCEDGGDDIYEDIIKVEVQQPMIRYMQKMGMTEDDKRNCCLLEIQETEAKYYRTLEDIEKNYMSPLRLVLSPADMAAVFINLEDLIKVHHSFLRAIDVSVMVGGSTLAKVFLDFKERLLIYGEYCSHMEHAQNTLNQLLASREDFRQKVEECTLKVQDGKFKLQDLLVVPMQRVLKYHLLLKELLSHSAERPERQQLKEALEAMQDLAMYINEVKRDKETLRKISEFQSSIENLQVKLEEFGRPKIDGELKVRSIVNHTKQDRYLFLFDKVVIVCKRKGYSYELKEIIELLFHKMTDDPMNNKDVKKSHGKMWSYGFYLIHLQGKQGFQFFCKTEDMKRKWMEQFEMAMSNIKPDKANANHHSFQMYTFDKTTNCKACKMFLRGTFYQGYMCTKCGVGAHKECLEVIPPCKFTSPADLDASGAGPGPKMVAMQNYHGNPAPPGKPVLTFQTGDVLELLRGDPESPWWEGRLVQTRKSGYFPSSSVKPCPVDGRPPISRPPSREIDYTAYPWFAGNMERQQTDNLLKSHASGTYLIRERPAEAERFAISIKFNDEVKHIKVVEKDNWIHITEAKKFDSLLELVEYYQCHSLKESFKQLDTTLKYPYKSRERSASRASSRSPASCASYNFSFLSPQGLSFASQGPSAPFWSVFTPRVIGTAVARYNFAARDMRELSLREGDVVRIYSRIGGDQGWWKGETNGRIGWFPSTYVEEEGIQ
Nature of the assay: co-IP; HCAECs, 100 µM UTP for the indicated times, also after 1 µM PP2 or 10 µM SU1498 for 30 min; lysate IP with anti-vav2 antibody, IB with anti-p120 catenin; endogenous proteins.

B1: Vascular endothelial cadherin (VE-cadherin), endogenous in HCAECs (protein, UniProt P33151 48-784)
chain: DWIWNQMHIDEEKNTSLPHHVGKIKSSVSRKNAKYLLKGEYVGKVFRVDAETGDVFAIERLDRENISEYHLTAVIVDKDTGENLETPSSFTIKVHDVNDNWPVFTHRLFNASVPESSAVGTSVISVTAVDADDPTVGDHASVMYQILKGKEYFAIDNSGRIITITKSLDREKQARYEIVVEARDAQGLRGDSGTATVLVTLQDINDNFPFFTQTKYTFVVPEDTRVGTSVGSLFVEDPDEPQNRMTKYSILRGDYQDAFTIETNPAHNEGIIKPMKPLDYEYIQQYSFIVEATDPTIDLRYMSPPAGNRAQVIINITDVDEPPIFQQPFYHFQLKENQKKPLIGTVLAMDPDAARHSIGYSIRRTSDKGQFFRVTKKGDIYNEKELDREVYPWYNLTVEAKELDSTGTPTGKESIVQVHIEVLDENDNAPEFAKPYQPKVCENAVHGQLVLQISAIDKDITPRNVKFKFILNTENNFTLTDNHDNTANITVKYGQFDREHTKVHFLPVVISDNGMPSRTGTSTLTVAVCKCNEQGEFTFCEDMAAQVGVSIQAVVAILLCILTITVITLLIFLRRRLRKQARAHGKSVPEIHEQLVTYDEEGGGEMDTTSYDVSVLNSVRRGGAKPPRPALDARPSLYAQVQKPPRHAPGAHGGPGEMAAMIEVKKDEADHDGDGPPYDTLHIYGYEGSESIAESLSSLGTDSSDSDVDYDFLNDWGPRFKMLAELYGSDPREELLY
Take B1: the binding entry in assay [1] is “no binding”; in assay [2] it was “binds”; in assay [3], “no binding”; in assay [4], “binds”.

B2: p120 catenin, endogenous in HCAECs (protein, UniProt O60716 1-968)
chain: MDDSEVESTASILASVKEQEAQFEKLTRALEEERRHVSAQLERVRVSPQDANPLMANGTLTRRHQNGRFVGDADLERQKFSDLKLNGPQDHSHLLYSTIPRMQEPGQIVETYTEEDPEGAMSVVSVETSDDGTTRRTETTVKKVVKTVTTRTVQPVAMGPDGLPVDASSVSNNYIQTLGRDFRKNGNGGPGPYVGQAGTATLPRNFHYPPDGYSRHYEDGYPGGSDNYGSLSRVTRIEERYRPSMEGYRAPSRQDVYGPQPQVRVGGSSVDLHRFHPEPYGLEDDQRSMGYDDLDYGMMSDYGTARRTGTPSDPRRRLRSYEDMIGEEVPSDQYYWAPLAQHERGSLASLDSLRKGGPPPPNWRQPELPEVIAMLGFRLDAVKSNAAAYLQHLCYRNDKVKTDVRKLKGIPVLVGLLDHPKKEVHLGACGALKNISFGRDQDNKIAIKNCDGVPALVRLLRKARDMDLTEVITGTLWNLSSHDSIKMEIVDHALHALTDEVIIPHSGWEREPNEDCKPRHIEWESVLTNTAGCLRNVSSERSEARRKLRECDGLVDALIFIVQAEIGQKDSDSKLVENCVCLLRNLSYQVHREIPQAERYQEAAPNVANNTGPHAASCFGAKKGKDEWFSRGKKPIEDPANDTVDFPKRTSPARGYELLFQPEVVRIYISLLKESKTPAILEASAGAIQNLCAGRWTYGRYIRSALRQEKALSAIADLLTNEHERVVKAASGALRNLAVDARNKELIGKHAIPNLVKNLPGGQQNSSWNFSEDTVISILNTINEVIAENLEAAKKLRETQGIEKLVLINKSGNRSEKEVRAAALVLQTIWGYKELRKPLEKEGWKKSDFQVNLNNASRSQSSHSYDDSTLPLIDRNQKSDKKPDREEIQMSNMGSNTKSLDNNYSTPNERGDHNRTLDRSGDLGDMEPLKGTTPLMQDEGQESLEEELDVLVLDDEGGQVSYPSMQKI
For B2, the binding entry in assay [5] is reported as “binds”.
